Experimental data: paper PMC12935370
No constants are given. Whether binding was seen depends on the method and setting. In cells and extracts the contact can be indirect. Some results given as binding are weak or reduced against the parent protein; the word gives no strength. Where a sequence is shown, tags or fusion partners need not be part of it.

Amino acid sequences for entries named in this document (tags omitted).
UniProt P57780: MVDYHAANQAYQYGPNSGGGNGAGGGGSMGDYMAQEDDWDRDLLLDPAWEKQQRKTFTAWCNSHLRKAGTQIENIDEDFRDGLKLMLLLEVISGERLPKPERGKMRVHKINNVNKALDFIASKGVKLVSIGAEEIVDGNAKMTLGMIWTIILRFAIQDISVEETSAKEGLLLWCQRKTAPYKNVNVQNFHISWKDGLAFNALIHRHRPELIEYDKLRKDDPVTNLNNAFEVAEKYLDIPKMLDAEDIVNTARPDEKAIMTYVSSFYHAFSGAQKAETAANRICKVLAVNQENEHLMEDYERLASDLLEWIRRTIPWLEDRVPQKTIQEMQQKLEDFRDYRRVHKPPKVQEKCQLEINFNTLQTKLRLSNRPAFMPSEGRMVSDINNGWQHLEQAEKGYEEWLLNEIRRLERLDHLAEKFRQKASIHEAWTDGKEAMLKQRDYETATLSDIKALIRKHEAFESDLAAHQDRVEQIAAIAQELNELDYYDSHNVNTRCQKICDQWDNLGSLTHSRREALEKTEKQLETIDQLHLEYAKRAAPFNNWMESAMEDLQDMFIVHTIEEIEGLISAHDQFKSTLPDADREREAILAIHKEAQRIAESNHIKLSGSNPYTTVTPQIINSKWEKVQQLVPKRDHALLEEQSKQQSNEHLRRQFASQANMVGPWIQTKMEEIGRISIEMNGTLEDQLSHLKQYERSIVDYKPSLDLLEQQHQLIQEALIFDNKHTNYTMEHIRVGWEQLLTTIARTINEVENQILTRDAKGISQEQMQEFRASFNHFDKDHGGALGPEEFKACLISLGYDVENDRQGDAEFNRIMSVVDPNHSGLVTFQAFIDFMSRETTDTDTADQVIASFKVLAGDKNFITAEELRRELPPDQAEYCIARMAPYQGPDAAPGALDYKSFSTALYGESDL
UniProt Q9WVQ1: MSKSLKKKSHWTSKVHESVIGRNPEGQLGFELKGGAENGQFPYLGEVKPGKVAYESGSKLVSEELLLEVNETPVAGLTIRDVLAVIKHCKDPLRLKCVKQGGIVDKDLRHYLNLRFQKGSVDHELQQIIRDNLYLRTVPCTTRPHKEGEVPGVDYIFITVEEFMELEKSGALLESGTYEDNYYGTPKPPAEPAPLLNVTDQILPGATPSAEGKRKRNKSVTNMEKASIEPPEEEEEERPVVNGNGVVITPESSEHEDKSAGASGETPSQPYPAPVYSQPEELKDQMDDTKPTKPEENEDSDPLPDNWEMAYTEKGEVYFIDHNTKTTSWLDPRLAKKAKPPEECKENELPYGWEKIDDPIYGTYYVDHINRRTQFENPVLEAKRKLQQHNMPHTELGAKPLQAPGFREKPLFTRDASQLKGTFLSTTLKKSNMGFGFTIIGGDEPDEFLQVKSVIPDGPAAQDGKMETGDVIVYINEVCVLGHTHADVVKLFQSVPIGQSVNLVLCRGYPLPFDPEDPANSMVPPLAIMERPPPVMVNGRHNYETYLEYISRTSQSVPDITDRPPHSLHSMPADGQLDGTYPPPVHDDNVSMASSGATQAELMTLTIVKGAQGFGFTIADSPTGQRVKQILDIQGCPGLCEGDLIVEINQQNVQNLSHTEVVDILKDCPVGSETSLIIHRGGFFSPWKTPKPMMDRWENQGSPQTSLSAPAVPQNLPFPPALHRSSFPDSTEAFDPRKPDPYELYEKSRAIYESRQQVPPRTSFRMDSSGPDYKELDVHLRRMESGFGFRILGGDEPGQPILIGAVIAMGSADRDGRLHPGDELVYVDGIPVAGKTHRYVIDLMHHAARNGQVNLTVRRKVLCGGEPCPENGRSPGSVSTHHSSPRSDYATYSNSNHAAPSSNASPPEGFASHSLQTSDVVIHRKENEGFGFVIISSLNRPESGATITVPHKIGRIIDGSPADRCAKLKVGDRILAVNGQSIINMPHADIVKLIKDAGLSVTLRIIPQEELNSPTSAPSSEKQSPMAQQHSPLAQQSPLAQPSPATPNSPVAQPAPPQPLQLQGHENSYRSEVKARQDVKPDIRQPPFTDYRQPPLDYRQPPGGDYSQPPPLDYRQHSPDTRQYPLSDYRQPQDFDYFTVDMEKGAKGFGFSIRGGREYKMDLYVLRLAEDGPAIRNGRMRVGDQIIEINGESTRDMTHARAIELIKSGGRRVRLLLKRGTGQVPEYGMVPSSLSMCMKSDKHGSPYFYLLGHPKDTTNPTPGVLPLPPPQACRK

Assays:
[1] = molecular target: FLAG-α-actinin-4 (UniProt P57780); assay: co-IP; human embryonic kidney T antigen cells cotransfected with all three: GFP-Synpo, GFP-MAGI-2 and FLAG-α-actinin-4; Western blot
[2] = molecular target: FLAG-MAGI-2 (membrane-associated guanylate kinase inverted 2) (UniProt Q9WVQ1); assay: co-IP; human embryonic kidney T antigen cells cotransfected with one GFP-tagged and one FLAG-tagged protein (whole proteins and truncated mutants of MAGI-2); Western blot
[3] = molecular target: FLAG-α-actinin-4 (UniProt P57780); assay: as above

Measured: binding

B1: GFP-Synpo (synaptopodin) (protein, UniProt Q8CC35 1-929)
chain: MLGAHFPPPPLGASEGRAAPCTFQIPDGSYRCLALEAEESSSEDGLQGEVRLVDLEEEGTSQSRANHGTPPLSRAPAIIQPSSCHREARGGFQRSDRPSHDWDVVQARKVMTASGSSSPVPRVAQKPALGRSTSFTENDLKEAKARSQQIAAQLTTPPSSNSRGVQLFNRRRQRVNEFTLESRGQRSPKLNQEALQTGRPLSPIGHAPGPSVKPTSPSKPGSPKHPSPQSPSRGVAGHIMEGYSEEASLLRHLEKVASEEEEVPLVVYLKENAALLTANGLHLSQSRETQQSSPNPPDTEVPSPAADINQNPSSPNATLTTLASSSHHSQPTADINQNPPAAITPVPQNSSQAQCSPNGTLDSKPGTLCADDGQSPVPAEEVRSSILLIDKVSAPPSAASTFSREATPLSSSGPPAADLMSSSLLIDMQPSTLVAPAEQEVPGHVAVTTPTKVYSEVHLTLAKPASVVNRTARPFGIQSPGTSQIEQSPMMGRRQFGEKAWAPPASSMADRSPQPQRHIMSRSPMVERRLLGQRSPVLERRPLGNFTPPPTYAETLSTAPVASRVRSPPSYSTLYPSSDPKPSHLKGQVAPANKTGILEESMARRGSRKSMFTFVEKPKVTPNPDLLDLVQTADEKRRQRDHGEVGMEEEPFALGAEASNFQQEPIARDRASPAAAEEAVPEWASCLKSPRIQAKPKPKPNQNLSEASGKGAELYARRQSRMEKYVIESSGHAELARCPSPTMSLPSSWKYTTNAPGGFRVASLSPARTPPASLYHGYLPENGVLRPEPTKQQPYQMRPSLYALSPVKEPAKASSRATSSRTPSRTVSPRAASPAKPSSLDLVPNLPRAGLPPSPALPRPSRSSPGLYTAPVQDSLQPTAVSPTYSSDISPVSPSRAWSPRAKQAPRPSFSTRNAGIEAQVWKPSFCFK
binds: [1] | [2] | [3]
